doi:10.1101/2021.12.21.473728
These are yes or no findings as the source states them, for the method shown. Binding seen in cells or lysates may run through a third protein. Some entries that bind do so weakly or less than the wild type.

Chains of the proteins cited; added tags and fusions are not shown.
UniProt P40356: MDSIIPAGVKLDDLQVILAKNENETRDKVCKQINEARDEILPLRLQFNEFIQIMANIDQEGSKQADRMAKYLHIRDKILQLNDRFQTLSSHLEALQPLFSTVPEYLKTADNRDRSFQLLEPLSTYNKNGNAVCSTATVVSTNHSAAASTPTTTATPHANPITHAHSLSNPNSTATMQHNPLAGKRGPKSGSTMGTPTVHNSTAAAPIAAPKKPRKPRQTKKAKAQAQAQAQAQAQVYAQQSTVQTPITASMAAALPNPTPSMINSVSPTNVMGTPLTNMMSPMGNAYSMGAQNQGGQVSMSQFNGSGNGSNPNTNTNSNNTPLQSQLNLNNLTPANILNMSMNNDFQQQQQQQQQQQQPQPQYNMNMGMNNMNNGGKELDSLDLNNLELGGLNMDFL
UniProt Q12124: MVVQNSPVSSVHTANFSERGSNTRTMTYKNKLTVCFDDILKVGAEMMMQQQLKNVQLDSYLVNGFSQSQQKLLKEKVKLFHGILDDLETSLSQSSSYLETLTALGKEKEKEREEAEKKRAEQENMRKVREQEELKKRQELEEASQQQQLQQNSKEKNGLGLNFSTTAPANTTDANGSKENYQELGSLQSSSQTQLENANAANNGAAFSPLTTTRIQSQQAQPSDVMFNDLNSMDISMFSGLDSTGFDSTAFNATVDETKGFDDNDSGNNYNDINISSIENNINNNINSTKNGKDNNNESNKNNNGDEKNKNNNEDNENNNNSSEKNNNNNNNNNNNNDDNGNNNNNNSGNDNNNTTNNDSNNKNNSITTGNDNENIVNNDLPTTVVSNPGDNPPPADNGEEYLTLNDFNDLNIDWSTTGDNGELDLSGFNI
UniProt P19659: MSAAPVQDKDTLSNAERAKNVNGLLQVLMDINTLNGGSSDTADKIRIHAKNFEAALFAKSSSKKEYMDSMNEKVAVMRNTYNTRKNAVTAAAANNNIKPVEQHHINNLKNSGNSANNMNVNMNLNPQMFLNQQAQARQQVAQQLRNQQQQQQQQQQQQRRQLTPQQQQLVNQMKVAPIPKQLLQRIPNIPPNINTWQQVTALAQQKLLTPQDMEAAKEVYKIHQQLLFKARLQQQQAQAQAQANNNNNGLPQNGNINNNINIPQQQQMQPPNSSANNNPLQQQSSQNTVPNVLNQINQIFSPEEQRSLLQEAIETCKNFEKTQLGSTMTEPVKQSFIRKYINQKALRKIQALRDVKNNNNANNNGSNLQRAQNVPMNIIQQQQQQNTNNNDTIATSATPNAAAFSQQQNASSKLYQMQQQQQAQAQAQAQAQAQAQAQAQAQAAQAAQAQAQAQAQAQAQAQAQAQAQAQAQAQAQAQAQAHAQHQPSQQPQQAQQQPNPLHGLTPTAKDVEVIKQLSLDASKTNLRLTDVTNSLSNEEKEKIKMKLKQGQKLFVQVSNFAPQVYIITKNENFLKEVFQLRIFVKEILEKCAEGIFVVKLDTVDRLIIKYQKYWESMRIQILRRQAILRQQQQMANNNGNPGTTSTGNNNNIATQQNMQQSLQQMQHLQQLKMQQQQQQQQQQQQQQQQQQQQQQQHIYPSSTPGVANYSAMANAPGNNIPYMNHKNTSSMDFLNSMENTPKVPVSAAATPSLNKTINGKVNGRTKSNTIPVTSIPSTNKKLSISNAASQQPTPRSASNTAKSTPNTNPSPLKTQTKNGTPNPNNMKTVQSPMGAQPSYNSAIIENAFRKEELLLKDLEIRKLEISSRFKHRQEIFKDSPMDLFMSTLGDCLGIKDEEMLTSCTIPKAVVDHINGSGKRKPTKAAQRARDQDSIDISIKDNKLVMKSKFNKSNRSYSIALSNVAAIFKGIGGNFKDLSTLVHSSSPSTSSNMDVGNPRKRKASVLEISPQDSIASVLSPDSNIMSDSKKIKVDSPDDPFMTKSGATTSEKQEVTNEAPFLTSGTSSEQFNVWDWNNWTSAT
UniProt P32585: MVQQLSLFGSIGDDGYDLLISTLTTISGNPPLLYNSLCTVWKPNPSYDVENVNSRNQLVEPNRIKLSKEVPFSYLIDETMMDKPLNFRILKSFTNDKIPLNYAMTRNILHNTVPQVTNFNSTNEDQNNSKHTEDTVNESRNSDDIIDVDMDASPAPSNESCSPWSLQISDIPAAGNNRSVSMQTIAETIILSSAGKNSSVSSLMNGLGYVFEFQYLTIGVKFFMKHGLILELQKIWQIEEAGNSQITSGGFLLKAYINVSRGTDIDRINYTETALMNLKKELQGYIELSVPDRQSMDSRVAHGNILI

T1: Med17 (S. cerevisiae (endogenous in BY4705 derivatives)), P32569
T1 chain: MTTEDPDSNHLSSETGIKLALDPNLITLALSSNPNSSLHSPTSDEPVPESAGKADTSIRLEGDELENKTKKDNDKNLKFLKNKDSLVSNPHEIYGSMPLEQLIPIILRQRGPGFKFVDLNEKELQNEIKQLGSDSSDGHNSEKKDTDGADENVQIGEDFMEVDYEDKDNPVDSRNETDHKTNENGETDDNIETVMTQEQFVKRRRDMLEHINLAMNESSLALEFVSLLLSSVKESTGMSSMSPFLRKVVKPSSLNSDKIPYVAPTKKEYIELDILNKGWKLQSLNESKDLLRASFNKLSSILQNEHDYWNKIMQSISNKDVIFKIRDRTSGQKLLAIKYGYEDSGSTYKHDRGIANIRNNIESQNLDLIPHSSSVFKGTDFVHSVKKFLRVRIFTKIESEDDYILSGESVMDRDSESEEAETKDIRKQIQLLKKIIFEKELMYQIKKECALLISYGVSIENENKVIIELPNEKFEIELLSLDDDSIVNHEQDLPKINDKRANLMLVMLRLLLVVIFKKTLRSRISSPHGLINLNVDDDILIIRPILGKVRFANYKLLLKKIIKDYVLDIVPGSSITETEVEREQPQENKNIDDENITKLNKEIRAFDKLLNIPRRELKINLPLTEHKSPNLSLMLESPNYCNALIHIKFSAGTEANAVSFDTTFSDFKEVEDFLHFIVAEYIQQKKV


Legend:
Assay in all cases: co-IP
[1] = molecular target: Med3 (S. cerevisiae (endogenous in BY4705 derivatives)) (UniProt P40356)
[2] = molecular target: Med17 (S. cerevisiae (endogenous in BY4705 derivatives)) (UniProt P32569)
[3] = molecular target: T1, Med17 (S. cerevisiae (endogenous in …)); settings: remark: other sources report otherwise

Molecule	binding [1]	also measured
Med2 (from UniProt Q12124 1-431)	binds	
Med15 (from UniProt P19659 1-1081)	binds	
Med18 (from UniProt P32585 1-307)		binding [2]: binds
Med1, Q12321 1-566 (protein) MVEGDSYVETLDSMIELFKDYKPGSITLENITRLCQTLGLESFTEELSNELSRLSTASKIIVIDVDYNKKQDRIQDVKLVLASNFDNFDYFNQRDGEHEKSNILLNSLTKYPDLKAFHNNLKFLYLLDAYSHIESDSTSHNNGSSDKSLDSSNASFNNQGKLDLFKYFTELSHYIRQCFQDNCCDFKVRTNLNDKFGIYILTQGINGKEVPLAKIYLEENKSDSQYRFYEYIYSQETKSWINESAENFSNGISLVMEIVANAKESNYTDLIWFPEDFISPELIIDKVTCSSNSSSSPPIIDLFSNNNYNSRIQLMNDFTTKLINIKKFDISNDNLDLISEILKWVQWSRIVLQNVFKLVSTPSSNSNSSELEPDYQAPFSTSTKDKNSSTSNTEPIPRSNRHGSVVEASRRRRSSTNKSKRPSITEAMMLKEEGLQQFNLHEILSEPAIEEENGDSIKEHSTTMDGANDLGFTASVSNQENAGTDIVMEDHGVLQGTSQNYGTATADDADIEMKDVSSKPSKPESSVLQLIVSEDHIILDTISECNLYDDVKCWSKFIEKFQDIVS		binding [3]: binds
